Numbering of substitutions follows the chain as printed. Numbers in names are those of the source. Results are given in words; binding and its absence hold for the method and conditions named. Some binding calls cover weakened binding; strength is not graded here. For some assays here: Sequences can lack the tags named with a protein. One block for each binder: values may come before it.
What was measured:
[1] = biological target: cynomolgus monkey CD3 epsilon 1-26_Fc fusion protein (cynomolgus monkey); assay: SPR, human IgG1 format, graded relative to chimeric SP34; one grade for human and cynomolgus protein
[2] = biological target: human CD3 epsilon 1-26_Fc fusion protein (human); assay: as above
[3] = biological target: cynomolgus monkey CD3 epsilon 1-26_Fc fusion protein (cynomolgus monkey); assay: scFv-Fc format; SPR on CD3 epsilon 1-26 Fc by paragraph 181
[4] = biological target: human CD3 epsilon 1-26_Fc fusion protein (human); assay: as above
[5] = biological target: soluble extracellular region of cynomolgus monkey CD38 antigen fused to a 6-His-tag (cynomolgus monkey) (UniProt Q5VAN0); assay: SPR (FIG. 24)
[6] = biological target: soluble extracellular region of human CD38 fused to a 6-His-tag (human) (UniProt P28907); assay: SPR, antibody immobilized, human CD38 extracellular domain injected as control
[7] = biological target: soluble extracellular region of human CD38 fused to a 6-His-tag (human) (UniProt P28907); assay: SPR, antibody on the chip, CD38 extracellular domain injected (concentration not given)
[8] = biological target: soluble extracellular region of cynomolgus monkey CD38 antigen fused to a 6-His-tag (cynomolgus monkey) (UniProt Q5VAN0); assay: as above
[9] = biological target: soluble extracellular region of human CD38 fused to a 6-His-tag (human) (UniProt P28907); assay: SPR, antibody immobilized on the chip, human CD38 extracellular domain injected as control
[10] = biological target: soluble extracellular region of human CD38 fused to a 6-His-tag (human) (UniProt P28907); assay: SPR, antibody captured on protein G chip, human CD38-His injected at 0.1 to 25 nM
[11] = biological target: soluble extracellular region of human CD38 fused to a 6-His-tag (human) (UniProt P28907); assay: SPR, captured antibody (inset on the sheet shows Protein A, legend paragraph 60 says protein G), human CD38-His injected at 0.1 to 50 nM

Chains of the proteins cited; added tags and fusions are not shown. Lines headed by an entry give the natural chain unless they say otherwise; changes in a name come on top.
UniProt Q5VAN0: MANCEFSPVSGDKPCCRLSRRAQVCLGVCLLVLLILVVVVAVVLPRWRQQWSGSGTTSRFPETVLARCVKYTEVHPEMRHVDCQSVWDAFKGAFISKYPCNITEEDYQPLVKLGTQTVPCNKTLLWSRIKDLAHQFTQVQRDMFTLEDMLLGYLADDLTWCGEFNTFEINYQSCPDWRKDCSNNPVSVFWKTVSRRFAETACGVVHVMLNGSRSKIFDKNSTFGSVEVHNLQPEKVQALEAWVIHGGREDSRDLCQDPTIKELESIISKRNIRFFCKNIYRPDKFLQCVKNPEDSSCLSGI
UniProt P28907: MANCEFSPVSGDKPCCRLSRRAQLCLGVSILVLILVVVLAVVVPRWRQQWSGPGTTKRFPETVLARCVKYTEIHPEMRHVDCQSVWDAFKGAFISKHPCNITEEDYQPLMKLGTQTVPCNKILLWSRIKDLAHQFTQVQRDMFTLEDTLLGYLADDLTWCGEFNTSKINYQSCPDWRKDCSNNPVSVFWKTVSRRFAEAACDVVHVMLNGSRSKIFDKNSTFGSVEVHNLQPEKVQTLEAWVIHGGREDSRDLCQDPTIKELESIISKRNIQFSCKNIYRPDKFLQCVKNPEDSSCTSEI

binding [1]: binds | binding [2]: binds
B1: VH1/VL4 (antibody, V domains shown)
VH: EVQLVESGGGLVQPGGSLRLSCAASGFTFNTYAMNWVRQAPGKGLEWVARIRSKYNNYATYYADSVKGRFTISRDDSKNTLYLQMNSLRAEDTAVYYCVRHGNFGNSYVSWFAYWGQGTTVTVSS
VL: EAVVTQSATLSVSPGERATLSCRSSTGAVTTSNYANWVQEKPGQAFRGLIGGANKRAPGVPARFSGSLSGDEATLTISSLQSEDFAVYFCALWYSNLWVFGQGTKLEIKR

binding [3]: binds | binding [4]: binds
B2: SP34 H1L21 scFv-Fc with T29A in the light chain (scFv, name in Kabat numbering, V domains shown)
VH: B1 VH
VL: EIVVTQSPATLSVSPGERATLSCRSSTGAVTASNYANWVQEKPGQAFRGLIGGANKRAPGVPARFSGSLSGDEATLTISSLQSEDFAVYYCALWYSNLWVFGQGTKLEIK

binding [5]: binds | binding [6]: binds | binding [7]: binds | binding [8]: binds | binding [9]: binds
B3: humanized 9G7 antibody (best-fit version) as used in Example 10 (antibody, human IgG1, kappa, V domains shown)
VH: QVTLKESGPTLVKPTQTLTLTCTFSGLSLSTSGKGVGWIRQPPGKALEWLAHIWWDDDKRYNPALKSRLTITKDTSKNQVVLTMTNMDPVDTATYYCARIELGRSYVMDYWGQGTLVTVSS
VL: DIQMTQSPSSLSASVGDRVTITCQASQDVITSVAWFQQKPGKAPKLLIYSASYRYTGVPSRFSGSGSGTDFTFTISSLQPEDIATYYCQQHYTIPLTFGQGTKLEIKR

binding [10]: binds
B4: humanized 9G7 best-fit antibody (antibody, human IgG1, kappa, V domains shown)
VH: B3 VH
VL: B3 VL with F36Y

binding [11]: binds
B5: humanized 9G7 best-framework antibody (antibody, human IgG1, kappa, V domains shown)
VH: EVQLVESGGGLVQPGGSLRLSCAFSGLSLSTSGKGVGWIRQAPGKGLEWLAHIWWDDDKRYNPALKSRLTISKDTSKNTVYLQMNSLRAEDTAVYYCARIELGRSYVMDYWGQGTLVTVSS
VL: B3 VL with Q24R, F73L, I83F, L104V
